The values that follow come from US11396552 (DIABETES FREE, dated 2022).

Chains of the proteins cited; added tags and fusions are not shown. Residues count along the entry.
UniProt P25942, residues 21-193: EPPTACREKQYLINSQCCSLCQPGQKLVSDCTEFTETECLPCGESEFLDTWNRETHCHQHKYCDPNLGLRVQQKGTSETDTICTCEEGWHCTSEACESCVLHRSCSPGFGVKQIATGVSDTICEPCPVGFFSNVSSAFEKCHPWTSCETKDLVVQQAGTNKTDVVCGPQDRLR

Assay [1] has as its target T1, recombinant CD40 (human, UniProt P25942 21-193, limits assumed).
T1 construct: the ELISA method itself names no species or construct; also called antigen CD40
In words: CD40 ELISA, relative binding value.

Assay [2] deals with T1, recombinant CD40. In words: CD40 ELISA (Table 2).
The target in assay [3] is T1, recombinant CD40. The assay is described as follows: CD40 ELISA.

Results are given in words; binding and its absence hold for the method and conditions named. Some results given as binding are weak or reduced against the parent protein; the word gives no strength.

B1: PG102_Var5 (antibody, human IgG4 S228P, kappa, V domains shown)
VH: QVQLQESGPGLVKPSETLSITCTVSGFSLSRYSVYWIRQPPGKGPEWMGMMWGGGSTDYSTSLKSRLTISKDTSKSQVSLKMSSLTAADTAVYYCVRTDGDYWGQGTLVTVSS
VL: ELQLTQSPLSLPVTLGQPASISCRSSQSLASSQGNTYLHWYLQRPGQSPRLLIYKVSNRFSGVPDRFSGSGSGTDFTLKISRVEAEDVGVYYCSQSTHVPWTFGGGTKLEIKR
notes: IgG4pro(deltaK)/kappa; also called FFP104_Var5
Consider B1, for which the binding result with recombinant CD40 [1], in the assay with recombinant CD40 [2] and in the assay with recombinant CD40 [3] was “binds” throughout.

B2: PG102_Var7 (antibody, human IgG4 S228P, kappa, V domains shown)
VH: QVQLQESGPGLVKPSQTLSLTCTVSGFSLSRYSVYWVRQPPGKGLEWIGMMWGGGSTDYNPSLKSRLTISKDTSKSQVSLKLSSLTAADTAVYYCVRTDGDYWGQGTLVTVSS
VL: ELQLTQSPLSLPVTLGQPASISCRSSQSLASSQGNTYLHWYLQRPGQSPRLLIYKVSNRFSGVPDRFSGSGSGTDFTLKISRVEAEDVGVYYCSQSTHVPWTFGGGTKLEIKR
notes: IgG4pro(deltaK)/kappa; also called FFP104_Var7
As for B2, the binding result in the assay with recombinant CD40 [1] and with recombinant CD40 [2] was “binds” throughout.

B3: PG102_Var8 (antibody, human IgG4 S228P, kappa, V domains shown)
VH: QVQLVESGGGLVKPGGSLRLSCAVSGFSLSRYSVYWIRQAPGKGLEWMGMMWGGGSTDYSTSVKGRFTISKDNAKTSVYLQMSSLRAEDTAVYYCVRTDGDYWGQGTLVTVSS
VL: ELQLTQSPLSLPVTLGQPASISCRSSQSLASSQGNTYLHWYLQRPGQSPRLLIYKVSNRFSGVPDRFSGSGSGTDFTLKISRVEAEDVGVYYCSQSTHVPWTFGGGTKLEIKR
notes: IgG4pro(deltaK)/kappa; also called FFP104_Var8
For the molecule B3, the binding result in the assay with recombinant CD40 [1] and in the assay with recombinant CD40 [2] was “binds” in each case.

B4: PG102_Var3 (antibody, human IgG4 S228P, kappa, V domains shown)
VH: QVQLQESGPGLVKPSQTLSLTCTVSGFSLSRYSVYWVRQPPGKGLEWIGMMWGGGSTDYNPSLKSRLTISKDTSKSQVSLKLSSLTAADTAVYYCVRTDGDYWGQGTLVTVSS
VL: ELQLTQSPLSLPVTLGQPASISCRSSQSLASSSGNTYLHWYLQRPGQSPRLLIYKVSNRFSGVPDRFSGSGSGTDFTLKISRVEAEDVGVYYCSQSTHVPWTFGGGTKLEIKR
notes: IgG4pro(deltaK)/kappa; also called FFP104_Var3
On to B4, for which the binding entry with recombinant CD40 [1] and in the assay with recombinant CD40 [2] was “binds” throughout.

B5: PG102_Var2 (antibody, human IgG4 S228P, kappa, V domains shown)
VH: QVQLQESGPGLVKPSETLSITCTVSGFSLSRYSVYWVRQPPGKGLEWMGMMWGGGSTDYSTSLKSRLTISKDTSKSQVSLKMSSLTAADTAVYYCVRTDGDYWGQGTLVTVSS
VL: ELQLTQSPLSLPVTLGQPASISCRSSQSLASSSGNTYLHWYLQRPGQSPRLLIYKVSNRFSGVPDRFSGSGSGTDFTLKISRVEAEDVGVYYCSQSTHVPWTFGGGTKLEIKR
notes: IgG4pro(deltaK)/kappa; also called FFP104_Var2
Consider B5, for which the binding entry with recombinant CD40 [1], in the assay with recombinant CD40 [2] and with recombinant CD40 [3] was “binds” throughout.

B6: PG102_Var6 (antibody, human IgG4 S228P, kappa, V domains shown)
VH: QVQLQESGPGLVKPSETLSITCTVSGFSLSRYSVYWVRQPPGKGLEWMGMMWGGGSTDYSTSLKSRLTISKDTSKSQVSLKMSSLTAADTAVYYCVRTDGDYWGQGTLVTVSS
VL: ELQLTQSPLSLPVTLGQPASISCRSSQSLASSQGNTYLHWYLQRPGQSPRLLIYKVSNRFSGVPDRFSGSGSGTDFTLKISRVEAEDVGVYYCSQSTHVPWTFGGGTKLEIKR
notes: IgG4pro(deltaK)/kappa; also called FFP104_Var6
With B6, the binding entry in the assay with recombinant CD40 [1], with recombinant CD40 [2] and with recombinant CD40 [3] was “binds” throughout.

B7: PG102_Var14 (antibody, human IgG4 S228P, kappa, V domains shown)
VH: QVQLQESGPGLVKPSETLSITCTVSGFSLSRYSVYWVRQPPGKGLEWMGMMWGGGSTDYSTSLKSRLTISKDTSKSQVSLKMSSLTAADTAVYYCVRTDGDYWGQGTLVTVSS
VL: DIVMTQSPLSLPVTPGQPASISCRSSQSLASSQGNTYLHWYLQKPGQSPRLLIYKVSNRFSGVPDRFSGSGSGTDFTLKISRVEAEDVGVYYCSQSTHVPWTFGGGTKLEIKR
notes: IgG4pro(deltaK)/kappa; also called FFP104_Var14
B7: the binding result with recombinant CD40 [1] and in the assay with recombinant CD40 [2] was “binds” in each case.

B8: PG102_Var4 (antibody, human IgG4 S228P, kappa, V domains shown)
VH: QVQLVESGGGLVKPGGSLRLSCAVSGFSLSRYSVYWIRQAPGKGLEWMGMMWGGGSTDYSTSVKGRFTISKDNAKTSVYLQMSSLRAEDTAVYYCVRTDGDYWGQGTLVTVSS
VL: ELQLTQSPLSLPVTLGQPASISCRSSQSLASSSGNTYLHWYLQRPGQSPRLLIYKVSNRFSGVPDRFSGSGSGTDFTLKISRVEAEDVGVYYCSQSTHVPWTFGGGTKLEIKR
notes: IgG4pro(deltaK)/kappa; also called FFP104_Var4
As to B8, the binding entry with recombinant CD40 [1] and in the assay with recombinant CD40 [2] was “binds” throughout.

B9: PG102_Var15 (antibody, human IgG4 S228P, kappa, V domains shown)
VH: QVQLQESGPGLVKPSQTLSLTCTVSGFSLSRYSVYWVRQPPGKGLEWIGMMWGGGSTDYNPSLKSRLTISKDTSKSQVSLKLSSLTAADTAVYYCVRTDGDYWGQGTLVTVSS
VL: DIVMTQSPLSLPVTPGQPASISCRSSQSLASSQGNTYLHWYLQKPGQSPRLLIYKVSNRFSGVPDRFSGSGSGTDFTLKISRVEAEDVGVYYCSQSTHVPWTFGGGTKLEIKR
notes: IgG4pro(deltaK)/kappa; also called FFP104_Var15
In the case of B9, the binding result with recombinant CD40 [1] and with recombinant CD40 [2] was “binds” throughout.

B10: PG102_Var16 (antibody, human IgG4 S228P, kappa, V domains shown)
VH: QVQLVESGGGLVKPGGSLRLSCAVSGFSLSRYSVYWIRQAPGKGLEWMGMMWGGGSTDYSTSVKGRFTISKDNAKTSVYLQMSSLRAEDTAVYYCVRTDGDYWGQGTLVTVSS
VL: DIVMTQSPLSLPVTPGQPASISCRSSQSLASSQGNTYLHWYLQKPGQSPRLLIYKVSNRFSGVPDRFSGSGSGTDFTLKISRVEAEDVGVYYCSQSTHVPWTFGGGTKLEIKR
notes: IgG4pro(deltaK)/kappa; also called FFP104_Var16
Turning to B10, the binding entry with recombinant CD40 [1] and with recombinant CD40 [2] was “binds” throughout.

B11: PG102_Var13 (antibody, human IgG4 S228P, kappa, V domains shown)
VH: QVQLQESGPGLVKPSETLSITCTVSGFSLSRYSVYWIRQPPGKGPEWMGMMWGGGSTDYSTSLKSRLTISKDTSKSQVSLKMSSLTAADTAVYYCVRTDGDYWGQGTLVTVSS
VL: DIVMTQSPLSLPVTPGQPASISCRSSQSLASSQGNTYLHWYLQKPGQSPRLLIYKVSNRFSGVPDRFSGSGSGTDFTLKISRVEAEDVGVYYCSQSTHVPWTFGGGTKLEIKR
notes: IgG4pro(deltaK)/kappa; also called FFP104_Var13
Take B11: the binding entry in the assay with recombinant CD40 [1] and with recombinant CD40 [2] was “binds” throughout.

B12: PG102_Var1 (antibody, human IgG4 S228P, kappa, V domains shown)
VH: QVQLQESGPGLVKPSETLSITCTVSGFSLSRYSVYWIRQPPGKGPEWMGMMWGGGSTDYSTSLKSRLTISKDTSKSQVSLKMSSLTAADTAVYYCVRTDGDYWGQGTLVTVSS
VL: ELQLTQSPLSLPVTLGQPASISCRSSQSLASSSGNTYLHWYLQRPGQSPRLLIYKVSNRFSGVPDRFSGSGSGTDFTLKISRVEAEDVGVYYCSQSTHVPWTFGGGTKLEIKR
notes: IgG4pro(deltaK)/kappa; also called FFP104_Var1
For B12, the binding result in the assay with recombinant CD40 [1], with recombinant CD40 [2] and in the assay with recombinant CD40 [3] was “binds” in each case.
